Source: the RNAGym collection of RNA variant scans (doi:10.1126/science.aae0568)
Variants at the floor of the assay are shown more often than the library holds them.

B1: tRNA (parent)
chain: GUUCCGUUGGCGUAAUGGUAACGCGUCUCCCUCCUAAGGAGAAGACUGCGGGUUCGAGUCCCGUACGGAACG

Variants of: B1
Test: yeast fitness relative to wild type (ratio to wild type); higher = fitter; tRNA-Arg(CCU), competitive growth, 37 C, YPD
In short: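 Changes in genotype frequencies gave Darwinian fitness relative to wild type. Frequencies were read by 100-nucleotide paired-end sequencing of gene amplicons before and after pooled Saccharomyces cerevisiae strains, carrying tRNA-Arg(CCU) gene variants at the native locus, were competed in YPD at 37°C for 24 hours in six replicates. A genotype was kept only with ≥ 100 starting reads, and estimates < 0.5 were set to 0.5.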

Row | Variant | yeast fitness
1 | GUUCUCUUGGAGUAAUGGUAACGCGUCUCCGUCCUCAGGAGAAGACUGUGGGUUCGAGACCCGUACGGAACG [C5U G6C C11A C31G A36C C49U U59A] | ≤ 0.5
2 | GAUCCGUUGGCGUAAUGGUUCCGCGUUUCCCUACUAAGGAGAAGACUGCGGGUUCGAGUCCCGUACGGAACG [U2A A20U A21C C27U C33A] | ≤ 0.5
3 | GUUCGGUUGGCGUAAUGGGAAUGCGUCUCCCUCCUAAGGAGACGACUGCGAGUUCGAGUCCCGUACGGAACG [C5G U19G C22U A43C G51A] | ≤ 0.5
4 | GUUGCGUAGGCGUAAUGGUAACGCGUCUCCCUCCUAAGGAGAAGACUGUGGGUUCGAGUCCCGUACGGAACG [C4G U8A C49U] | ≤ 0.5
5 | GUUCCGUUGGCGUAAUGGUAACGCAUCUCCGUCCUAAGGAGAAGUCUGCGGGUUCGAGUCUUGUACGGAACG [G25A C31G A45U C61U C62U] | ≤ 0.5
6 | GUUCCGCUGGCGUAAUGGUAACGCGUCUCCUUCCUGAGGAGAUGACUGCGGGUUCGAGUCCGGUACGGAACG [U7C C31U A36G A43U C62G] | ≤ 0.5
7 | GUUCCGUUGGAGUAAUGGUAACGCCUCUCCCUCCUACGGAGAAGACUGCGGGUUCGAGUCCCGUACGGAACG [C11A G25C A37C] | ≤ 0.5
8 | GUUCUGUUGGCGUAAUGGUAACGCGUCUCCCUCCUAAGGAAAAGACUGCGGGUUCGAGUCCCGUACGGAACG [C5U G41A] | 0.906
9 | GUUCCGUUGGCGUAAUGGUAACCCGUCUCCCUCCUAAGGAGAAGACUGCGGGUUCGAGUCGUGUACGGAACG [G23C C61G C62U] | ≤ 0.5
10 | GUUCCGUUGGCAUAAUGGUAACGCGUCUCCCUCCUAAGGAGGAGACUGCGGGUUGGAGUCCCGUACGGAACG [G12A A42G C55G] | ≤ 0.5
11 | GGUUCGUUGGCGUAAUGGUCACGCGUCUCGCUCCUAAGGAGAAGACUGCGGGUUCGAGUCCCGUACGGAACG [U2G C4U A20C C30G] | ≤ 0.5
12 | GCUCCGUUGGCGUAAUGGUAACGCGUCUCCCUCCAAAGGAGAAGACUGCGGGUUCGAGUCCCGUACGGAACG [U2C U35A] | 0.62
13 | GUUCCGUUGGCGUAAUGGUAACGCGUCUUUCUCCUAAGGAGAAGACUGGGGGUUCGAGUCCCGUUCGGAACG [C29U C30U C49G A65U] | ≤ 0.5
14 | GUUCCGUUGGCGUAAUGGUAACGCGUCUCCCUCUUCAGGAGAAGACUGCGGGCUCGAGUCCCGUGCGGAACG [C34U A36C U53C A65G] | ≤ 0.5
15 | GUUCCGUUCGCCUGAUGGUCACGCGUCUCCCUCCUAAGGAGAAGACUGCGGGUUCGAGUCACGUACGGUACG [G9C G12C A14G A20C C61A A69U] | ≤ 0.5
16 | GUUCGGUUGGCGUAAUGGUAACGCGUCUCCCUCCUACAGAGAAGACUGCGGAUUCGAGUCCCGUACGGCACG [C5G A37C G38A G52A A69C] | ≤ 0.5
17 | GUUCCGUUGGCGUAAUGGUAACGCGUCUCCAUCCUAAGGACAAGACUGCCGGUUCAAGUCCCGUACGGAACG [C31A G41C G50C G56A] | ≤ 0.5
18 | GUUCCGUUGGCGUAGUGGUAACGGGUCUCCCUCCUAAGGAGAAGACUGCGGGUUCGAGUCUCUUACGAAACG [A15G C24G C61U G63U G68A] | ≤ 0.5
19 | GUUCCGUUGGCGUAAUGGUAACGCGUGUCCCUCCUAAGGAGAAGACUGCGGGUUCGAGUGCCGUACGGAACG [C27G C60G] | ≤ 0.5

Row | Variant | yeast fitness
20 | GUUCCGUCGGCGUAAUGGUACCGGGUCUCCCUCCUAAGGAGAAGACUGCGGGUUCGAGUCCCGUCCCGAACG [U8C A21C C24G A65C G67C] | ≤ 0.5
21 | GUUCGGUUGGCGUAAUGGUAACGCGUCUCUCUCCUAAGGAGAAGACUGUGGGUACGAGUCCCGUACGGAACG [C5G C30U C49U U54A] | ≤ 0.5
22 | GAUCCGUUGUCGUAAAGGUAACGCGUCUCCCUCCUAAGGAGAAGACUGCGGGUUCCGGUCCUGUACGGAACG [U2A G10U U16A G56C A57G C62U] | ≤ 0.5
23 | GUACCGUUGGCGUAAUGGUAACGCGUCUCCCUCCUACGGAGAAGACUGCGGGUUAGAGUCCCGUACGGAACG [U3A A37C C55A] | ≤ 0.5
24 | GUUCCGUUGGCGAAAUCGUAACGCGUCUCCCGCCUAAGGAGCAGACUGCGGGUUCGAGUCCCGUACGGAACG [U13A G17C U32G A42C] | ≤ 0.5
25 | GUUGCGUUGGCGUAAUGGUAACGCGUCUCCCACCUAAGGAGAAGACUGCGGGUUCGAGUCACGUACGGAACG [C4G U32A C61A] | ≤ 0.5
26 | GUUCCGUUGGCGUAAUGGUAACGCGUCUCUCUCCUAAGGAGAAGACUGCGGGUUCGAGUGCGGUCCGGCACG [C30U C60G C62G A65C A69C] | ≤ 0.5
27 | GUUCCGUUGGCGUAAUGGUUCCGCGUCUCCAUCCUAAGGAGAAGACUGCGGGUUCGAGUCCCGUACGGAUCG [A20U A21C C31A A70U] | ≤ 0.5
28 | GUUCCAUUGGCGUACUGGUAACGCGUCUCCCUCCUUAGGAGAAGACUGCGGGUUCGAGUCCCGUCCGGAACG [G6A A15C A36U A65C] | ≤ 0.5
29 | GUUACGUUGGCGGAAUGGUAACGCGUCUCCCGCCUAAGGAGAAGACUGCGGGUUUGAGUCCCCUACGGAACG [C4A U13G U32G C55U G63C] | ≤ 0.5
30 | GUUACGUUGGCGUAAUGGUAACGCGUCUCCAUGCUAAGGAGAAGACUGCGGGUUCGAGUCCCGUACGGAACG [C4A C31A C33G] | ≤ 0.5
31 | GGUCUGUUGGCGUAAUGGUACCGCGUCUCCCUCCUAAGGAGAAGACUGCGGGUUCGAGUCCCGUACGGAACG [U2G C5U A21C] | ≤ 0.5
32 | GUUCCGUUGGCGUAAUGGUAACGCGUCUCCCUCCUAAGGAGAAGACUGCGGGUUCGUGUCCCGUACGGAACG [A57U] | 0.731
33 | GUUCCGUUGGCGUAAUGGUAUCGCGUCUCUCUCCUAAGGAGAAGACUGCGGGUUCGAGUCCGGUACGGAACG [A21U C30U C62G] | ≤ 0.5
34 | GUUCCGUUGGCGUAAUGGUAACGUGUCUCCCUCCUAAGGAGAAGACUGCCGGUUCGAGUCUCGUUCGGAACG [C24U G50C C61U A65U] | ≤ 0.5
35 | GUUCUGUUGGCGUUAUGGUAACGCGUCUCCCUCCUAAGGACAAGACUGCGGGUUCGAGUCCCGUACGGAACG [C5U A14U G41C] | ≤ 0.5
36 | GUUCCGUAGGCGUAAUGGUAACGCGUCUCCCUCUUAAGGAGAUGACUGCGGGUUCGAGCCCCGUACCGAACG [U8A C34U A43U U59C G67C] | ≤ 0.5
37 | GUUCCGCUGGCGUAAUGGUAACGCGUCUCCCUCUUAAGGAGAAGACUGCGGGUUCGAGUCCCGUACGGAACG [U7C C34U] | 0.699
38 | GUUCGGUUGGCGUAAUGGUUACGCGUCUCCCUCCUAACGAGAAGACUACGGGUUCGAGUCCCGUACGGAACG [C5G A20U G38C G48A] | ≤ 0.5
